In paper doi:10.1101/2023.06.27.546774:
Results are given in words; binding and its absence hold for the method and conditions named. Binding seen in cells or lysates may run through a third protein. Some results given as binding are weak or reduced against the parent protein; the word gives no strength. Where a sequence is shown, tags or fusion partners need not be part of it.

Amino acid sequences for entries named in this document (tags omitted).
UniProt P42224: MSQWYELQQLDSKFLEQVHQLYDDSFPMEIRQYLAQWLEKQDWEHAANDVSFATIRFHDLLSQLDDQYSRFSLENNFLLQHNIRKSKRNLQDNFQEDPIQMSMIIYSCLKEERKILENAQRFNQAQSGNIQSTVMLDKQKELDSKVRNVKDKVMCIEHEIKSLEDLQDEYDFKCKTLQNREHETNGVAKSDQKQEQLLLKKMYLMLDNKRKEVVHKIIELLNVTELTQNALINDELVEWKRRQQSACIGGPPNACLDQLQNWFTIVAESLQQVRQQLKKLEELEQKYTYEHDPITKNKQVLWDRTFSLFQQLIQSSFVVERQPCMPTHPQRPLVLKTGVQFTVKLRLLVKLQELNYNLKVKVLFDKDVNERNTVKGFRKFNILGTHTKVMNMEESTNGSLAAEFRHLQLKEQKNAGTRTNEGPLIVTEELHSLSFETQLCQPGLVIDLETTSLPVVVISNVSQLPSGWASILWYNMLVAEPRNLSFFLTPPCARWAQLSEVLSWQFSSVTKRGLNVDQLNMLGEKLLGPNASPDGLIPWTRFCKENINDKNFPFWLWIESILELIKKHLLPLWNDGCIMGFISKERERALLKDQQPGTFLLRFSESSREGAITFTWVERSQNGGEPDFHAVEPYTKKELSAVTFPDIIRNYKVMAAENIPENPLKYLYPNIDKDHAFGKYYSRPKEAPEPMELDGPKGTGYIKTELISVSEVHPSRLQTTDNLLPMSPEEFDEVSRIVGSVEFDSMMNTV

Biological target: GFP-tagged STAT1 (signal transducer and activator of transcription-1) (UniProt P42224)
Test: co-IP

B1: HA-tagged protein tyrosine phosphatase non-receptor type 2 (PTPN2) (enzyme, UniProt P17706-2 1-387)
chain: MPTTIEREFEELDTQRRWQPLYLEIRNESHDYPHRVAKFPENRNRNRYRDVSPYDHSRVKLQNAENDYINASLVDIEEAQRSYILTQGPLPNTCCHFWLMVWQQKTKAVVMLNRIVEKESVKCAQYWPTDDQEMLFKETGFSVKLLSEDVKSYYTVHLLQLENINSGETRTISHFHYTTWPDFGVPESPASFLNFLFKVRESGSLNPDHGPAVIHCSAGIGRSGTFSLVDTCLVLMEKGDDINIKQVLLNMRKYRMGLIQTPDQLRFSYMAIIEGAKCIKGDSSIQKRWKELSKEDLSPAFDHSPNKIMTEKYNGNRIGLEEEKLTGDRCTGLSSKMQDTMEENSESALRKRIREDRKATTAQKVQQMKQRLNENERKRKRPRLTDT
Which binding does the source give for B1 here?
The binding was “binds”.
